Data reported in publication PMC6445127, “WNT5A is transported via lipoprotein particles in the cerebrospinal fluid to regulate hindbrain morphogenesis” (Nature Communications, 2019).
No constants are given. Whether binding was seen depends on the method and setting. Binding calls can cover weak binding; strength is not graded here.

Biological target: human LDL lipoprotein fraction (native LDL) (human)
Experiment: molecular sieve assay (150 kDa cut-off filtration) + KBr gradient ultracentrifugation; 100 ng recombinant WNT5A incubated with 50 ug native LDL in 800 µl serum-free DMEM for 4 h at 37 °C, filtered through a 150 kDa cut-off concentrator; the >150 kDa fraction separated into VLDL, LDL and HDL on a KBr gradient; western blot; both purified

B1: recombinant WNT5A (ligand, UniProt P22725 62-380, looked up)
chain: IIGAQPLCSQLAGLSQGQKKLCHLYQDHMQYIGEGAKTGIKECQYQFRHRRWNCSTVDNTSVFGRVMQIGSRETAFTYAVSAAGVVNAMSRACREGELSTCGCSRAARPKDLPRDWLWGGCGDNIDYGYRFAKEFVDARERERIHAKGSYESARILMNLHNNEAGRRTVYNLADVACKCHGVSGSCSLKTCWLQLADFRKVGDALKEKYDSAAAMRLNSRGKLVQVNSRFNSPTTQDLVYIDPSPDYCVRNESTGSLGTQGRLCNKTSEGMDGCELMCCGRGYDQFKTVQTERCHCKFHWCCYVKCKKCTEIVDQFVCK
notes: recombinant WNT5A, R&D Systems; 'P22725' is printed where a catalogue number would stand; elsewhere the catalogue number 645-WN-010 is printed; WNT5A'; also called rcWNT5A; rcWnt5a; source: bought: R&D Systems
- binding: binds
